For at least one entry, the source does not settle the construct or the ends of the probe. Results from cells or extracts need not show a direct contact. Negatives hold for the conditions tested.

Data set [1] addresses WDR5 (UniProt Q498M4). Kind of data set: pull-down. The settings on record: protein in cells, protein details: Schwann cells.
Data set [2] concerns the target EZH2 (UniProt F7F5Z0). Kind of data set: pull-down. The settings on record: protein in cells, protein details: endogenous, Schwann cells.

For the sequence “GUCCAAGCUUCCAUCUGGUCGCCCCCACGCAGCCGACCGCCCAGACACGCCGGGAAGGGCGCCCGCUUUGUGCAGCAGCUGGAGGGGAGGGAGCGGGAGAGCGCGGGCAGGGGGCGUGGGGGUGGGGGUGCCUCUGGCCGAGGAUCUCUCUGGAAGCUCCAGCAGCUCUUCUGCUCCAUUCUCUCUACCCUAACCCCUACCCUCAAGUUACCUAAAAUACUUAAACAAACAAACAGCCCAGACCUGUUCCGUUUUCACUCCUGUAUAAAUAGCACAGACUUUCCAAAAAAGCAAGACCGCAUUUACUCUUAUCACCAGACACUACUUUCCACCGUGUAAUUCAGAAAAAGGCAGUCAGCUUCCGUGAGUGCGGGUAAUUUUUUUUUUCUUCUCUCUCUCUCUCUUUUUUUCUCUGUCUUUUUUUUUUUUUCUUUUGCUUGCGGUUUUGAGCUGCCAAGAAAGUGAAGGAGGGGUUUGACUGUA [AS1 fragment (-966 to -483)]”, the binding result is on record as “no binding” in data set [1] (RIP, WDR5 binding reported for AS2 only, region-specific, non-binding implied, variant of EGR2-AS-RNA full length) and “binds” in data set [2] (RIP after overexpression of AS1 in Schwann cells, variant of EGR2-AS-RNA full length).
On to “GUCCAAGCUUCCAUCUGGUCGCCCCCACGCAGCCGACCGCCCAGACACGCCGGGAAGGGCGCCCGCUUUGUGCAGCAGCUGGAGGGGAGGGAGCGGGAGAGCGCGGGCAGGGGGCGUGGGGGUGGGGGUGCCUCUGGCCGAGGAUCUCUCUGGAAGCUCCAGCAGCUCUUCUGCUCCAUUCUCUCUACCCUAACCCCUACCCUCAAGUUACCUAAAAUACUUAAACAAACAAACAGCCCAGACCUGUUCCGUUUUCACUCCUGUAUAAAUAGCACAGACUUUCCAAAAAAGCAAGACCGCAUUUACUCUUAUCACCAGACACUACUUUCCACCGUGUAAUUCAGAAAAAGGCAGUCAGCUUCCGUGAGUGCGGGUAAUUUUUUUUUUCUUCUCUCUCUCUCUCUUUUUUUCUCUGUCUUUUUUUUUUUUUCUUUUGCUUGCGGUUUUGAGCUGCCAAGAAAGUGAAGGAGGGGUUUGACUGUAGUGUCUCGGCAGCGCUCGGUUUCUUUCCGAAGUUUAAUUUUCCGGAAUGGCUCCCAAACAAGGGCUGGGGAGGCGGAGCCGCCACUACCGGAUCUUCUCCUUUUUUGGAAAGUCUCGGAGAACCGGAAUUCCUCCCCGCCCCAAGAGACAGAGCUACCAUCGCUGCCCGUGGGUUCACCCACGGCAGCCGCGUCAGGGUCGGUGAUCGCGCCUUCCCCGCGCUGAACUCUGCAGUCCGGAGUCCCCGUUGCAGGCAGGGGCCGAGAGCUCCAGACCCGGGCGGUUGUCCACCGGCAGCGAAUCGUUCCGGGCGAGCUCGGCGGAGCCCGCGCAGCCAAGCCCGUAUGCAAAUUGGCCAUGUGACCGGCAAAAGCUACCAGGCCCAGCCCUGUUCCUCAGUCCAUAUAUGGGCAGCGACGUCACGGGUUAUUGAAGACCUGCCCAUAAAUACUCCGAGCCUAACACUUUCCGUCUGAGAGAGCA [EGR2-AS-RNA full length]”, for which the binding result in data set [1] (RNA immunoprecipitation with qPCR after lentiviral overexpression in Schwann cells, p=0.040) is “binds”; in data set [2] (RNA immunoprecipitation with qPCR after lentiviral overexpression in Schwann cells, p=0.026), “binds”.
“UGUCUCGGCAGCGCUCGGUUUCUUUCCGAAGUUUAAUUUUCCGGAAUGGCUCCCAAACAAGGGCUGGGGAGGCGGAGCCGCCACUACCGGAUCUUCUCCUUUUUUGGAAAGUCUCGGAGAACCGGAAUUCCUCCCCGCCCCAAGAGACAGAGCUACCAUCGCUGCCCGUGGGUUCACCCACGGCAGCCGCGUCAGGGUCGGUGAUCGCGCCUUCCCCGCGCUGAACUCUGCAGUCCGGAGUCCCCGUUGCAGGCAGGGGCCGAGAGCUCCAGACCCGGGCGGUUGUCCACCGGCAGCGAAUCGUUCCGGGCGAGCUCGGCGGAGCCCGCGCAGCCAAGCCCGUAUGCAAAUUGGCCAUGUGACCGGCAAAAGCUACCAGGCCCAGCCCUGUUCCUCAGUCCAUAUAUGGGCAGCGACGUCACGGGUUAUUGAAGACCUGCCCAUAAAUACUCCGAGCCUAACACUUUCCGUCUGAGAGAGCA [AS2 fragment (-482 to -1)]”: the binding result in data set [1] (RIP after overexpression of AS2 in Schwann cells, variant of EGR2-AS-RNA full length) is given as “binds”; in data set [2] (RIP, EZH2 binding reported for AS1 only, region-specific, non-binding implied, variant of EGR2-AS-RNA full length), “no binding”.

For the origin of these results see patent US20250327071.
